Article PMC12715911
These are yes or no findings as the source states them, for the method shown. In cells and extracts the contact can be indirect. Binding can be weak; no strength is given.

Biological target: T1, nuclear factor erythroid 2-related factor 2 (NRF2) (bovine (endogenous in BEECs)) (UniProt Q5NUA6)
T1 sequence: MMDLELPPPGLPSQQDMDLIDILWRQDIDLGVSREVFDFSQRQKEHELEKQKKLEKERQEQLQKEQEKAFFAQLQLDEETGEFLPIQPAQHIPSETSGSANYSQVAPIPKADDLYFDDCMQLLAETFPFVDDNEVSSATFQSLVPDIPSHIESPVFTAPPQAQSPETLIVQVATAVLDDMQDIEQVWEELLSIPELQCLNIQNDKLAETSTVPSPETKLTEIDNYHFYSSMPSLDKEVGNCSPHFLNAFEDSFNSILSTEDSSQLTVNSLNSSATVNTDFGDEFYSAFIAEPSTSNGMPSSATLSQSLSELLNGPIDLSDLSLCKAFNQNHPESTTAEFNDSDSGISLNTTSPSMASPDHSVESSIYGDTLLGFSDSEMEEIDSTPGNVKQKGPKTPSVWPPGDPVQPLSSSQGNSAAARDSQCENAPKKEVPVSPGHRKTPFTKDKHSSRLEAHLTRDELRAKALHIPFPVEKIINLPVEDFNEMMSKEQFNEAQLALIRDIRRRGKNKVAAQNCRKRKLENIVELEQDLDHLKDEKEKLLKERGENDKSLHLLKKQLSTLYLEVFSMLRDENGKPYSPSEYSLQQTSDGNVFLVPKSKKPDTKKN
Assay: co-IP; BEEC lysate incubated with anti-NRF2 antibody at 4 °C overnight, then protein A/G at 4 °C overnight; washed three times; immunoblot with anti-GSK-3β; BEECs infected with E. coli

With “glycogen synthase kinase (GSK)-3β (bovine (endogenous in BEECs))” as the substance, how does the binding read?
The binding was “binds”.
